For this assay, the target named is STAU2^52-TurboID-HA (human). Put plainly: proximity labelling; TurboID: hTERT-RPE1 cells stably expressing STAU2^52-TurboID-HA (control YFP-TurboID-HA), 50 uM biotin for 4 h in the presence or absence of the CHK1 inhibitor PF47, RIPA lysis, streptavidin-coated magnetic beads, LC-MS/MS; SAINT probability greater than 0.7, CRAPome.

Consider one molecule from publication PMC7934504.

No constants are given. Whether binding was seen depends on the method and setting. Binding seen in cells or lysates may run through a third protein. A yes stands for co-enrichment or nearness to the bait. Other partners may have been found.

B1: SMEG2 (protein, UniProt Q02383 24-582)
chain: QKGGSKGQLPSGSSQFPHGQKGQHYFGQKDQQHTKSKGSFSIQHTYHVDINDHDWTRKSQQYDLNALHKATKSKQHLGGSQQLLNYKQEGRDHDKSKGHFHMIVIHHKGGQAHHGTQNPSQDQGNSPSGKGLSSQCSNTEKRLWVHGLSKEQASASGAQKGRTQGGSQSSYVLQTEELVVNKQQRETKNSHQNKGHYQNVVDVREEHSSKLQTSLHPAHQDRLQHGPKDIFTTQDELLVYNKNQHQTKNLSQDQEHGRKAHKISYPSSRTEERQLHHGEKSVQKDVSKGSISIQTEEKIHGKSQNQVTIHSQDQEHGHKENKISYQSSSTEERHLNCGEKGIQKGVSKGSISIQTEEQIHGKSQNQVRIPSQAQEYGHKENKISYQSSSTEERRLNSGEKDVQKGVSKGSISIQTEEKIHGKSQNQVTIPSQDQEHGHKENKMSYQSSSTEERRLNYGGKSTQKDVSQSSISFQIEKLVEGKSQIQTPNPNQDQWSGQNAKGKSGQSADSKQDLLSHEQKGRYKQESSESHNIVITEHEVAQDDHLTQQYNEDRNPIST
As for B1, the binding result is listed as “binds”.
